At least one compound was matched to its structure with a doubt left.
Tested on: RatMOG-induced EAE
Assay: RatMOG-induced EAE, short eight-day (pre-disease) protocol
Parameters: species or system mouse
Conditions: dosed in vivo 8 days; LOU064 1, 3 and 10 mg/kg
Method: Isolated draining lymph node cells were incubated in vitro with RatMOG for 48 hours. Antigen-specific proliferation was determined by [^3H]-thymidine incorporation. Animals dosed in vivo with BTK inhibitors (LOU064, ibrutinib or Cyclosporin A (CsA) for 8 days. Group sizes n=4-5 per treatment.
To elucidate further whether BTK inhibitor efficacy was directly linked to reduction in B-cell antigen-presenting function compounds were tested in recombinant RatMOG-induced EAE model. This EAE model shares many of the characteristics of recombinant HumanMOG-induced EAE with MOG-specific T-cells infiltrating the CNS and resulting in neurological paralysis. However, RatMOG-induced EAE is B-cell independent and the dendritic cells are the dominant antigen-presenting cells type. Therefore, BTK inhibitors would be predicted to have no significant efficacy in RatMOG-induced EAE unless drug treatment was associated with a broader, non-specific, immune suppression. In addition to LOU064, which was used at 1 mg/kg, 3 mg/kg and 10 mg/kg, the reference compound ibrutinib was tested.
Cyclosporin A (CsA) acted as a positive control for direct T-cell immunosuppression. […] Ex vivo MOG-induced recall proliferation responses were studied using isolated splenocytes collected on day 8 post-immunization. In vivo BTK inhibitor treatment had no effect on recall responses (FIG. 12).

For `C=CC(=O)N1CCC[C@@H](n2nc(-c3ccc(Oc4ccccc4)cc3)c3c(N)ncnc32)C1` [ibrutinib, reference compound], the “RatMOG (auto)antigen recall proliferation” value was “failed to inhibit (auto)antigen recall proliferation”.

From patent publication US20240350489A1, “LOU064 FOR TREATING MULTIPLE SCLEROSIS” (NOVARTIS AG, priority 2021, published 2024)
